Among the data in patent US20140296479A1, “D-APTIDE AND RETRO-INVERSO APTIDE WITH MAINTAINED TARGET AFFINITY AND IMPROVED STABILITY” (GWANGJU INSTITUTE OF SCIENCE AND TECHNOLOGY, priority 2011, published 2014) are binding values, retold here.

The chains behind the UniProt entries cited, without tags or fusion partners. Residues count along the entry.
UniProt P02751, residues 1266-1356: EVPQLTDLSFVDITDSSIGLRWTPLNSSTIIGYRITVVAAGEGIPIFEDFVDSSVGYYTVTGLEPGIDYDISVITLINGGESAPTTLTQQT

No constants are given. Whether binding was seen depends on the method and setting. Some entries that bind do so weakly or less than the wild type.

The test has as its target T1, fibronectin EDB (UniProt P02751 1266-1356, limits assumed, biotin (site not stated)).
T1 construct: domain: EDB; Biotin-EDB, 2000 RU, immobilised on a streptavidin SA chip; also called Biotin-EDB; fibronectin extra domain B (ED-B)
Briefly: SPR, BIAcore X. On the technique in general: SPR reads the build-up and loss of mass on a sensor chip optically.

B1: L-Aptide1EDB (designed binder)
peptide: HCSSAVGSWTWENGKWTWKGIIRLEQ
notes: Synthetic 26-mer, all L-amino acids; also called Aptide1EDB (L-form)
As to B1, the binding result was “binds”.
